# The list does not hold the whole screen: it is rich in T/C values a quarter to a half above the control, in often repeated tests (any T/C) and in doses without a T/C. Further doses and runs are listed elsewhere. T/C: endpoint of the treated group in % of that of the vehicle group. Some doses have a count of surviving animals in place of a T/C: the source holds a T/C of zero for them, seemingly a mark for toxic or unscored doses. Some survivor counts are full or nearly so, which does not show that the dose was tolerated: the source hardly ever lists a survival T/C far under the control, and the zero likely stands for such cases as well. Counts of survivors are from the toxicity check (mostly the fifth day) where no day follows; animals may have died later. Schedules are NCI's codes, taken here to give the interval after Q, in days (D) or hours (H), and the number of doses after X. Some doses were run more than once; the results are listed from low to high. Some schedules carry Z or #; the key to these is not given. Some structures stand for samples that the source files as different forms (salt, stereo form or complex); doses refer to the form tested. Where survival is the endpoint, the PubChem record calls one and a half times the control and up active, and a quarter to a half above the control has no call in these data; cut-offs in other NCI protocols can differ. Some T/C values carry the count of animals alive at the toxicity check (mostly the fifth day); where none is given, no animal had died by that day.
# System: L1210 leukemia ip in BDF1 mice, survival T/C
# Experiment: NCI In Vivo Anticancer Drug Screen. Data for tumor model L1210 Leukemia (intraperitoneal) in B6D2F1 (BDF1) mice
# Conditions: T/C endpoint: mean survival time, higher T/C = longer survival
# [1] = dose: 400.0 mg/kg/injection, schedule: Q04DX003 (ip), vehicle: saline
# [2] = dose: 200.0 mg/kg/injection, schedule: Q04DX003 (ip), vehicle: saline with Tween-80
# [3] = dose: 400.0 mg/kg/injection, schedule: Q04DX003 (ip), vehicle: saline with Tween-80
# [4] = dose: 400.0 mg/kg/injection, schedule: Q04DX002 (ip), vehicle: saline with Tween-80
# [5] = dose: 200.0 mg/kg/injection, schedule: Q01DX009 (ip), vehicle: saline with Tween-80
# [6] = dose: 400.0 mg/kg/injection, schedule: Q01DX009 (ip), vehicle: saline with Tween-80
# [7] = dose: 6.25 mg/kg/injection, schedule: Q01DX009 (ip), vehicle: Klucel (hydroxypropylcellulose) (HPC)
# [8] = dose: 25.0 mg/kg/injection, schedule: Q01DX009 (ip), vehicle: Klucel (hydroxypropylcellulose) (HPC)
# [9] = dose: 100.0 mg/kg/injection, schedule: Q04DX003 (ip), vehicle: Klucel (hydroxypropylcellulose) (HPC)
# [10] = dose: 200.0 mg/kg/injection, schedule: Q04DX003 (ip), vehicle: Klucel (hydroxypropylcellulose) (HPC)
# [11] = dose: 400.0 mg/kg/injection, schedule: Q04DX003 (ip), vehicle: Klucel (hydroxypropylcellulose) (HPC)
structure (smiles),measurement,setting,value
CCc1ccc(C2=C(O)C(=O)C(c3ccccc3)=C(O)C2=O)cc1,survivor count,"dose: 38.0 mg/kg/injection, schedule: Q01DX Z (ip), vehicle: carboxymethylcellulose (CMC)",1 of 6
same,T/C,"dose: 50.0 mg/kg/injection, schedule: Q01DX009 (ip), vehicle: acetone",127 % of control
same,survivor count,"dose: 57.0 mg/kg/injection, schedule: Q01DX Z (ip), vehicle: carboxymethylcellulose (CMC)",1 of 6
same,survivor count,"dose: 75.0 mg/kg/injection, schedule: Q01DX009 (ip), vehicle: saline",2 of 6
same,survivor count,"dose: 85.0 mg/kg/injection, schedule: Q01DX Z (ip), vehicle: carboxymethylcellulose (CMC)",0 of 6
NC(=O)c1cccc(Cl)n1,survivor count,"dose: 100.0 mg/kg/injection, schedule: Q04DX002 (ip), vehicle: Klucel (hydroxypropylcellulose) (HPC)",1 of 3
same,survivor count,"dose: 200.0 mg/kg/injection, schedule: Q04DX002 (ip), vehicle: Klucel (hydroxypropylcellulose) (HPC)",0 of 3
same,survivor count,"dose: 400.0 mg/kg/injection, schedule: Q04DX002 (ip), vehicle: Klucel (hydroxypropylcellulose) (HPC)",0 of 3
CCn1c(C)nc2cc(Cl)c(Br)cc21,survivor count,[1],6 of 6
COc1ccc2nonc2c1,survivor count,"dose: 400.0 mg/kg/injection, schedule: Q01DX001 (ip), vehicle: other",0 of 3
c1ccc(-c2nn(-c3ccccc3)[n+](-c3ccccc3)n2)cc1,survivor count,"dose: 100.0 mg/kg/injection, schedule: Q04DX003 (ip), vehicle: saline with Tween-80",0 of 6
same,survivor count,[2],0 of 6
same,survivor count,[3],0 of 6
Cc1ncc(CO)c2c1OC1=CCCCC1=C2,survivor count,[4],0 of 3
CN(C)N=Nc1c(Cl)cc(Cl)cc1C(N)=O,T/C,"dose: 133.0 mg/kg/injection, schedule: Q01DX009 (ip), vehicle: saline",136 % of control
same,T/C,[5],141 % of control
same,T/C,"dose: 264.0 mg/kg/injection, schedule: Q04DX003 (ip), vehicle: saline with Tween-80",132 % of control
same,T/C,[6],132 % of control [5 of 6 alive]
same,T/C,[3],138 and 140 % of control [5 of 6 alive]
same,survivor count,"dose: 600.0 mg/kg/injection, schedule: Q04DX003 (ip), vehicle: saline with Tween-80",3 of 6
O=NN(CCCl)C(=O)NC1CCC(CCl)CC1 (stereo unspecified),T/C,"dose: 134.0 mg/kg/injection, schedule: Q01DX001 (ip), vehicle: saline with Tween-80",144 % of control
C/C=C/CC1(C(C)C)C(=O)NC(=O)NC1=O,survivor count,"dose: 300.0 mg/kg/injection, schedule: Q01DX001 (ip), vehicle: other",0 of 6
same,survivor count,"dose: 300.0 mg/kg/injection, schedule: Q01DX001 (ip), vehicle: saline",1 of 6
O=c1oc2c3ccccc3c3ccccc3c2o1,survivor count,"dose: 200.0 mg/kg/injection, schedule: Q01DX009 (ip), vehicle: Klucel (hydroxypropylcellulose) (HPC)",4 of 6
same,survivor count,"dose: 400.0 mg/kg/injection, schedule: Q01DX009 (ip), vehicle: Klucel (hydroxypropylcellulose) (HPC)",2 of 6
CC[NH-].CC[NH-].[Cl][Pt+2][Cl],T/C,"dose: 6.0 mg/kg/injection, schedule: Q01DX001 (ip), vehicle: other",125 % of control
same,T/C,"dose: 6.0 mg/kg/injection, schedule: Q01DX009 (ip), vehicle: other",133 % of control
same,T/C,[7],140 % of control
same,T/C,"dose: 9.0 mg/kg/injection, schedule: Q01DX009 (ip), vehicle: Klucel (hydroxypropylcellulose) (HPC)",126 % of control
same,T/C,"dose: 12.0 mg/kg/injection, schedule: Q04DX003 (ip), vehicle: Klucel (hydroxypropylcellulose) (HPC)",125 % of control
same,T/C,"dose: 12.5 mg/kg/injection, schedule: Q04DX003 (ip), vehicle: Klucel (hydroxypropylcellulose) (HPC)",127 % of control
same,survivor count,[8],5 of 6
same,survivor count,"dose: 50.0 mg/kg/injection, schedule: Q04DX003 (ip), vehicle: Klucel (hydroxypropylcellulose) (HPC)",2 of 6
same,survivor count,[9],1 of 5
same,survivor count,[10],0 of 6
same,survivor count,[11],0 of 6
O=[N+]([O-])c1ccc(/C=N/O)s1,survivor count,"dose: 100.0 mg/kg/injection, schedule: Q01DX009 (ip), vehicle: saline with Tween-80",0 of 6
same,survivor count,"dose: 100.0 mg/kg/injection, schedule: Q04DX002 (ip), vehicle: saline with Tween-80",0 of 3 and 1 of 3
same,survivor count,[5],0 of 6
same,survivor count,"dose: 200.0 mg/kg/injection, schedule: Q04DX002 (ip), vehicle: saline with Tween-80",1 of 3
same,survivor count,[6],0 of 6
same,survivor count,[4],0 of 3
CCC[As](=O)(O)CCCc1ccccc1,survivor count,[7],0 of 3
same,survivor count,"dose: 12.5 mg/kg/injection, schedule: Q01DX009 (ip), vehicle: Klucel (hydroxypropylcellulose) (HPC)",0 of 3
same,survivor count,[8],0 of 3
O=C(CBr)N1CCC2(CC1)SSC1(CCN(C(=O)CBr)CC1)S2,survivor count,[5],3 of 6
same,survivor count,[3],0 of 6
CCC(CC)=NNC(N)=O,survivor count,[10],1 of 6
same,survivor count,[11],0 of 6
O=C1C(c2c[nH]c3ccc(Br)cc23)=Nc2ccc([N+](=O)[O-])cc21,survivor count,"dose: 100.0 mg/kg/injection, schedule: Q01DX001 (ip), vehicle: saline",4 of 4
Nc1nnnn1N(Cc1ccccc1)Cc1ccccc1,survivor count,[11],3 of 6
CC([CH2][Hg][Cl])c1ccccc1 (stereo unspecified),survivor count,"dose: 25.0 mg/kg/injection, schedule: Q04DX003 (ip), vehicle: Klucel (hydroxypropylcellulose) (HPC)",0 of 6
same,survivor count,[9],0 of 6
same,survivor count,[10],0 of 6
same,survivor count,[11],0 of 6
ClC(Cl)=C1SCCCS1,survivor count,"dose: 400.0 mg/kg/injection, schedule: Q01DX001 (ip), vehicle: saline with Tween-80",0 of 3
CCCCCCCCCCCCCCCC(=O)SCCSC(=O)CCCCCCCCCCCCCCC,survivor count,"dose: 350.0 mg/kg/injection, schedule: Q04DX003 (ip), vehicle: other",0 of 6
COC1=C(N2CC2)C(=O)c2ccccc2C1=O,survivor count,[2],4 of 6
same,survivor count,[3],0 of 6
O=S(=O)(c1ccc(Cl)cc1)C(F)F,survivor count,[9],6 of 6
same,survivor count,[10],3 of 6
same,survivor count,[11],0 of 6
CC1(C)N=C(N)N=C(N)N1c1cccc(OCCOc2ccc(NC(=O)CBr)cc2)c1,T/C,"dose: 100.0 mg/kg/injection, schedule: Q01DX009 (ip), vehicle: saline",133 % of control
same,survivor count,"dose: 300.0 mg/kg/injection, schedule: Q01DX009 (ip), vehicle: other",1 of 6
same,survivor count,"dose: 400.0 mg/kg/injection, schedule: Q01DX009 (ip), vehicle: saline",1 of 6
NNC12CC3CC(CC(C3)C1)C2,survivor count,"dose: 25.0 mg/kg/injection, schedule: Q01DX009 (ip), vehicle: saline",5 of 6
same,survivor count,"dose: 50.0 mg/kg/injection, schedule: Q01DX009 (ip), vehicle: saline",0 of 6
same,survivor count,"dose: 100.0 mg/kg/injection, schedule: Q04DX003 (ip), vehicle: saline",1 of 6
same,survivor count,"dose: 200.0 mg/kg/injection, schedule: Q04DX003 (ip), vehicle: saline",0 of 6
same,survivor count,[1],0 of 6
CN=C(N)c1ccc(NC(=O)c2ccc(C(=O)Nc3ccc(C(N)=NC)cc3)cc2)cc1,T/C,"dose: 2.2 mg/kg/injection, schedule: Q01DX Z (ip), vehicle: methylcellulose (MC)",131 % of control
same,T/C,"dose: 3.3 mg/kg/injection, schedule: Q01DX Z (ip), vehicle: methylcellulose (MC)",147 % of control
same,survivor count,"dose: 16.0 mg/kg/injection, schedule: Q01DX006 (iv), vehicle: saline",2 of 6
same,T/C,"dose: 60.0 mg/kg/injection, schedule: Q01DX Z (ip), vehicle: methylcellulose (MC)",146 % of control
same,T/C,"dose: 120.0 mg/kg/injection, schedule: Q01DX Z (ip), vehicle: methylcellulose (MC)",134 % of control
S=P(c1ccccc1)(N1CCCCC1)N1CCCCC1,survivor count,[1],6 of 6
